Results on six molecules are retold here after PMC11992160.

Amino acid sequences for entries named in this document (tags omitted).
UniProt P84022: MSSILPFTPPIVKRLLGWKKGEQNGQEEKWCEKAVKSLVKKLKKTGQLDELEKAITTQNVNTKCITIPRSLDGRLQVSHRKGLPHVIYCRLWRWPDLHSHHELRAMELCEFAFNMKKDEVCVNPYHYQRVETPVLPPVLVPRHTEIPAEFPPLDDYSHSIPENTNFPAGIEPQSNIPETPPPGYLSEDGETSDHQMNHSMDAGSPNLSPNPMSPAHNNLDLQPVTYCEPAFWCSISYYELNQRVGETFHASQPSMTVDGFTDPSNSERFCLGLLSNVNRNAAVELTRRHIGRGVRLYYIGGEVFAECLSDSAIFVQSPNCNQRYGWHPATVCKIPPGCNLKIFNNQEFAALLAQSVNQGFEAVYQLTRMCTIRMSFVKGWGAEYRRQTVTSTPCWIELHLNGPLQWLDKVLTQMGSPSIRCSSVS
UniProt Q15797: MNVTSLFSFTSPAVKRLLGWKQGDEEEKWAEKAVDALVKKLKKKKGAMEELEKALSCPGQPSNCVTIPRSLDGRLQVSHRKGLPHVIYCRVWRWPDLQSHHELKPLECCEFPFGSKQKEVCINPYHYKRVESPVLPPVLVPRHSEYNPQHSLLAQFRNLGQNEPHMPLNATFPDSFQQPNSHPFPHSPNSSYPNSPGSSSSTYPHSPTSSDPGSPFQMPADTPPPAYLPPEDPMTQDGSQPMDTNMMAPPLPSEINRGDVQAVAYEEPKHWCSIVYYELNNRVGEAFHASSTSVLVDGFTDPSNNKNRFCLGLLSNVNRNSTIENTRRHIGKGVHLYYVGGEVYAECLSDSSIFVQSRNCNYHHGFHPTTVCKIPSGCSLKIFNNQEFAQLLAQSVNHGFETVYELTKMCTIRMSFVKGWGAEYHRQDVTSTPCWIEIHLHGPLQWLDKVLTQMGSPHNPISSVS
UniProt Q99717: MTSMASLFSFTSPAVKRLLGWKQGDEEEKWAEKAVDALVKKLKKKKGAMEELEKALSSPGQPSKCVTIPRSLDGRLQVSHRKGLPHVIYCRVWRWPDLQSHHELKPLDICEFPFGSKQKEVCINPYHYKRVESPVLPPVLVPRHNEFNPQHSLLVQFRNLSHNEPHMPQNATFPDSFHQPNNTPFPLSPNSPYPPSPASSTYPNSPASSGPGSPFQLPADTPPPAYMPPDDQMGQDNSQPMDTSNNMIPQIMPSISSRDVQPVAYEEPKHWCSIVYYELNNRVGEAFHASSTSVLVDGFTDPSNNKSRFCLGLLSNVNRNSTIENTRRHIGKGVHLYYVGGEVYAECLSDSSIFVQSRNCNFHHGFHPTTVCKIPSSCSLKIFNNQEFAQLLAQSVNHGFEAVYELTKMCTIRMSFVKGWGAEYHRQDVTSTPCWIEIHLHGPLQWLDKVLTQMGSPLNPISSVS
UniProt Q13485: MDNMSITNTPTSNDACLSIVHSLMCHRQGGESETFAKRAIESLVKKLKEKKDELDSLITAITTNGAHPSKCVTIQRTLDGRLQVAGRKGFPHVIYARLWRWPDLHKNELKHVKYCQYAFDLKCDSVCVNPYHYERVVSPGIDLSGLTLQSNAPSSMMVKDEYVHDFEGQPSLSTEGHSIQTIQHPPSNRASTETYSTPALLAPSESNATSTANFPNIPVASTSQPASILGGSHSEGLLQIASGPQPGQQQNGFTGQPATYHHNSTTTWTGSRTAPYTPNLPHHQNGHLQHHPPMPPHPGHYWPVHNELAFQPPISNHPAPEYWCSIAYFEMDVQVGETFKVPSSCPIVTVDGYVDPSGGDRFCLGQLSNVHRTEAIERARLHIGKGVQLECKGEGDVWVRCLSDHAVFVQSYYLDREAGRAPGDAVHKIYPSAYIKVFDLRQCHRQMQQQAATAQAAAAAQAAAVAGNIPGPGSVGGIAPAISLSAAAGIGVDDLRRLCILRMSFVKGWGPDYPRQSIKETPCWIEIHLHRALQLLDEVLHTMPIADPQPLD
UniProt O94901: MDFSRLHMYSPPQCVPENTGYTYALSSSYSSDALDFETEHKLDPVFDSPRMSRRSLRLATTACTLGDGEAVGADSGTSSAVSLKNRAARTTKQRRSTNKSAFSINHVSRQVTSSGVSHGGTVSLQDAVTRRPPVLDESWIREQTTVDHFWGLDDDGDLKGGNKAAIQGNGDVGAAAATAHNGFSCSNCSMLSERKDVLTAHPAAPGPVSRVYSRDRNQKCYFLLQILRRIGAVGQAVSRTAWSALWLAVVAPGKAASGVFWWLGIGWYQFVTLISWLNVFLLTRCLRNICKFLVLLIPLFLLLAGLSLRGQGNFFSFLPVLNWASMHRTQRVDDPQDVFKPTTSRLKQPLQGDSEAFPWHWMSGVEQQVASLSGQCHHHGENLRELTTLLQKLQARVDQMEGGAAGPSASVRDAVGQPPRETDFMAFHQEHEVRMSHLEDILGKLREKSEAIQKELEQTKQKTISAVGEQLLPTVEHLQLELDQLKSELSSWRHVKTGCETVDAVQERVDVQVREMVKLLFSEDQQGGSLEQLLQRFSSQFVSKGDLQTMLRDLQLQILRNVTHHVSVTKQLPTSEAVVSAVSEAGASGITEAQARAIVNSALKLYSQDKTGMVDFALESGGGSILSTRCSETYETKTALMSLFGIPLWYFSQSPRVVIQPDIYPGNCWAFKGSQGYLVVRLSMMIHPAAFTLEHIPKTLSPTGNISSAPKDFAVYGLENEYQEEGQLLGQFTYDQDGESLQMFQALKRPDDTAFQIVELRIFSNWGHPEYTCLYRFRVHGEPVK

Read-outs that look alike come from different tables or passages of the source. No constants are given. Whether binding was seen depends on the method and setting. Binding seen in cells or lysates may run through a third protein. A yes stands for co-enrichment or nearness to the bait. Other partners may have been found. For some assays here: A no says only that the protein was not detected with the bait. Sequences can lack the tags named with a protein.

Common to all, as to assay: affinity purification with mass spectrometry; HeLa cells expressing CTDNEP1-3xFLAG or 3xV5-MAN1 against empty vector control cells, triplicates; lysis in 1% DMNG, 50 mM Tris-HCl pH 7.5, 150 mM NaCl; anti-FLAG or anti-V5 magnetic beads; label-free quantification
In test [1] the target is T1, V5-MAN1 (V5-tagged MAN1) (UniProt Q9Y2U8).
T1 sequence: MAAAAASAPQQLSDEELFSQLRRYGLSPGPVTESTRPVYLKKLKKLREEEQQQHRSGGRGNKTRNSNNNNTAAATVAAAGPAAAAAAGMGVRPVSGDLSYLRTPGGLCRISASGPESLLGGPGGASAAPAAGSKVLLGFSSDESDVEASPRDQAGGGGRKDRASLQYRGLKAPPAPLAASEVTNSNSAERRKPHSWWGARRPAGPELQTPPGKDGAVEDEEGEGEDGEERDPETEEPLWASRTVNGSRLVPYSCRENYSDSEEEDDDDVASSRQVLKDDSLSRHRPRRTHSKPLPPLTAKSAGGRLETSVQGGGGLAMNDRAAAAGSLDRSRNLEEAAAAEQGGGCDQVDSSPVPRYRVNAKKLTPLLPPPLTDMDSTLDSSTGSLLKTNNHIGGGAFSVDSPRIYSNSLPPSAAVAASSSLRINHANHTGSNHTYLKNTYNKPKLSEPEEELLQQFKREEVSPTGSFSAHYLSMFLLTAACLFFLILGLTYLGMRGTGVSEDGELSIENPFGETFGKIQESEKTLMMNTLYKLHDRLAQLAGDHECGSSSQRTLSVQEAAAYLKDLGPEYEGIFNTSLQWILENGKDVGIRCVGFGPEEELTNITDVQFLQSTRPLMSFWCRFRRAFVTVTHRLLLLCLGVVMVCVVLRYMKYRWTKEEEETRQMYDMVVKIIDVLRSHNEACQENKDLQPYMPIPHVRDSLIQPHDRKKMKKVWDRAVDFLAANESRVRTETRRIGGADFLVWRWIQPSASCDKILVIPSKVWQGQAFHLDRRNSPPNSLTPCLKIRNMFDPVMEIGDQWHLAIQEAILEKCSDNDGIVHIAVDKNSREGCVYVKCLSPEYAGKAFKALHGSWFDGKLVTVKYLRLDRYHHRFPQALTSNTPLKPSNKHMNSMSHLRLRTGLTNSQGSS

For test [2], the target named is T2, CTDNEP1-FLAG (CTDNEP1 fused to a triple FLAG epitope tag) (UniProt O95476).
T2 sequence: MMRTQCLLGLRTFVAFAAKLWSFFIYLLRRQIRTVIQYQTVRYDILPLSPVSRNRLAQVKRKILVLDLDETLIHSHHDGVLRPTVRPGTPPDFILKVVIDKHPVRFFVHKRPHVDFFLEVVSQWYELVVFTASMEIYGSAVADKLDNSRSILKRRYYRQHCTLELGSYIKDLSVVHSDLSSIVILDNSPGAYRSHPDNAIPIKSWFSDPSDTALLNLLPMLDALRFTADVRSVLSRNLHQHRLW

In test [3] the target is T2, CTDNEP1-FLAG (CTDNEP1 fused to a triple FLAG epitope tag). The source holds these as a separate data set.
The target in test [4] is T1, V5-MAN1 (V5-tagged MAN1). The source holds these as a separate data set.

For SMAD3 (from UniProt P84022 1-425), the binding result in the test with V5-MAN1 (V5-tagged MAN1) [1] is listed as “binds”.
Take SMAD1 (from UniProt Q15797 1-465): the binding entry in the test with V5-MAN1 (V5-tagged MAN1) [1] is given as “binds”.
Take SMAD5 (from UniProt Q99717 1-465): in the test with V5-MAN1 (V5-tagged MAN1) [1], the binding result is on record as “binds”.
On the same count and under the same terms, for SMAD4 (from UniProt Q13485 1-552) the value was “no binding”.
Consider SUN1 (from UniProt O94901 1-785), for which the binding entry (in test [2]; with V5-MAN1 (V5-tagged MAN1) [1]) was “no binding” in each case.

B1: endogenous NEP1R1 (protein, UniProt Q8N9A8 1-125)
chain: MNSLEQAEDLKAFERRLTEYIHCLQPATGRWRMLLIVVSVCTATGAWNWLIDPETQKVSFFTSLWNHPFFTISCITLIGLFFAGIHKRVVAPSIIAARCRTVLAEYNMSCDDTGKLILKPRPHVQ
Regarding B1, the binding result (in test [3]; with V5-MAN1 (V5-tagged MAN1) [4]) was “binds” in each case.
